From patent US20260242495A1 (PROMETHEUS BIOSCIENCES, published 2026) come the findings set out here.

No constants are given. Whether binding was seen depends on the method and setting. Some results given as binding are weak or reduced against the parent protein; the word gives no strength.

This assay has as its target T1, DR3 receptor on human TF-1 cells (human) (UniProt Q93038).
T1 sequence (looked up): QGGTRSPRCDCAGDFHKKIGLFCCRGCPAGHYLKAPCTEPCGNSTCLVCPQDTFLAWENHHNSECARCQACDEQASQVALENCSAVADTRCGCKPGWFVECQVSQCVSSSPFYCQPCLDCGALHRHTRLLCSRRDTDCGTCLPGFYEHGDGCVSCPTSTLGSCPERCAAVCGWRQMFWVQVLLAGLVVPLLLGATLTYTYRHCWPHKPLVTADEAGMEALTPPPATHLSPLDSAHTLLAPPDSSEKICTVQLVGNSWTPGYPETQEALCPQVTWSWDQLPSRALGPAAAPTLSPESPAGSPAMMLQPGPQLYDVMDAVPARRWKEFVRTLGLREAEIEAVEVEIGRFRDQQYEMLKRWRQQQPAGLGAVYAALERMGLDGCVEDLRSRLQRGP
The assay can be described thus: TF-1 cell caspase activation assay.

B1: human TL1A (recombinant, soluble) (ligand, UniProt O95150 72-251, looked up)
chain: LKGQEFAPSHQQVYAPLRADGDKPRAHLTVVRQTPTQHFKNQFPALHWEHELGLAFTKNRMNYTNKFLLIPESGDYFIYSQVTFRGMTSECSEIRQAGRPNKPDSITVVITKVTDSYPEPTQLLMGTKSVCEVGSNWFQPIYLGAMFSLQEGDKLMVNVSDISLVDYTKEDKTFFGAFLL
For B1, the binding entry is recorded as “binds”.
